Results are given in words; binding and its absence hold for the method and conditions named. Some binding calls cover weakened binding; strength is not graded here. Where a sequence is shown, tags or fusion partners need not be part of it.
Columns and labels:
[1] = molecular target: C5 (complement component C5) (UniProt P01031); test: ELISA, MFHR1 immobilised, C5 in solution
C3b [2] = molecular target: C3b (UniProt P01024); test: ELISA, C3b immobilised
[3] = molecular target: C5 (complement component C5) (UniProt P01031); test: ELISA, MFHR1 (133 nM) immobilised, C5 at 10, 20, 40 µg/ml, monoclonal C5 antibody detection
C3b [4] = molecular target: C3b (UniProt P01024); test: ELISA on C3b coated plates, alone or with FHR1 or FHR5 from equimolar to 100-fold excess
C3b [5] = molecular target: C3b (UniProt P01024); test: ELISA, C3b immobilised, serial dilutions of MFHR1, anti-FH detection

By UniProt entry, the sequences of proteins in these tests, tags left out. Where a name states a change or a piece, a line headed by the entry shows the natural chain unless it says otherwise.
UniProt P01031: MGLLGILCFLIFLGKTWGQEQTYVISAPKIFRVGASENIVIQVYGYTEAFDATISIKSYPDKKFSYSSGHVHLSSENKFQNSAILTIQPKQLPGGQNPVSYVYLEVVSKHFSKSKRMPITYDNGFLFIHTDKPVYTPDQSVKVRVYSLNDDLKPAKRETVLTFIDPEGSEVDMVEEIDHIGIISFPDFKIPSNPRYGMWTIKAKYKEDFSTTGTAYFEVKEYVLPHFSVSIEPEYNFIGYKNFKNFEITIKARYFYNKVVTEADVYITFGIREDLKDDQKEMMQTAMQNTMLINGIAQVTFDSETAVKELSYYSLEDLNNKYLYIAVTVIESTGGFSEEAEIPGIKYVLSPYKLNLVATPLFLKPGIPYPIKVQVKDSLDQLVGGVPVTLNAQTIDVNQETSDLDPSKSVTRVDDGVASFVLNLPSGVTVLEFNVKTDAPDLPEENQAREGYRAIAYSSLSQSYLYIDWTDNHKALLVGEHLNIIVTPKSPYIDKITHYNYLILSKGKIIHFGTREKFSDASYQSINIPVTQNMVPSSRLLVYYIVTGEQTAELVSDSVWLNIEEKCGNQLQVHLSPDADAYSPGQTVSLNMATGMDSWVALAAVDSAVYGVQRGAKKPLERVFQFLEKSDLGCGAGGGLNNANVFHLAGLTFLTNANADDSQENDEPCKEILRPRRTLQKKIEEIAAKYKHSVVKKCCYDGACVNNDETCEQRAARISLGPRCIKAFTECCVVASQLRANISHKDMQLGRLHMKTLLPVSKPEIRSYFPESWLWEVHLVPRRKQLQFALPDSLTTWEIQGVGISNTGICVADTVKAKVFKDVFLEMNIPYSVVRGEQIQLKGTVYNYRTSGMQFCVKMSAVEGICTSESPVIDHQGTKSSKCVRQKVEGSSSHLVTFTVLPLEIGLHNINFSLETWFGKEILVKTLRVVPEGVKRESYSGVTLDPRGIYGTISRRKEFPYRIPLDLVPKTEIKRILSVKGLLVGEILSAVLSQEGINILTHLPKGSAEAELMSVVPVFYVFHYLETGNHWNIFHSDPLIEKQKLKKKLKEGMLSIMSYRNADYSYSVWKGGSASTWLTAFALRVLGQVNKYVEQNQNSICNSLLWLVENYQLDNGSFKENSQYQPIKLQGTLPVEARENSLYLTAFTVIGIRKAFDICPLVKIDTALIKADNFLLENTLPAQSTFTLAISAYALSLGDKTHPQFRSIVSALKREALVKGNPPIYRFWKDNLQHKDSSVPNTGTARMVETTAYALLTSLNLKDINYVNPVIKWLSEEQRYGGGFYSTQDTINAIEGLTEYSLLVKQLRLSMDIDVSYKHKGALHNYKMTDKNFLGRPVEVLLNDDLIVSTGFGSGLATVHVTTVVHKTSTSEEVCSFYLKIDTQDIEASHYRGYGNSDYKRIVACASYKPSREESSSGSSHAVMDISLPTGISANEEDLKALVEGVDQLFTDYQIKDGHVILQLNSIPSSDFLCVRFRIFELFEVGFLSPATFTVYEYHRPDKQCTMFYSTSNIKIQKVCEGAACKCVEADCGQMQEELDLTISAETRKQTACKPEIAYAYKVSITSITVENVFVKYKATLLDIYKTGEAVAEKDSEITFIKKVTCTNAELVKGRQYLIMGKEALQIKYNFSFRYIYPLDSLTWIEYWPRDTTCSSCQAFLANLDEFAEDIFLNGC
UniProt P01024: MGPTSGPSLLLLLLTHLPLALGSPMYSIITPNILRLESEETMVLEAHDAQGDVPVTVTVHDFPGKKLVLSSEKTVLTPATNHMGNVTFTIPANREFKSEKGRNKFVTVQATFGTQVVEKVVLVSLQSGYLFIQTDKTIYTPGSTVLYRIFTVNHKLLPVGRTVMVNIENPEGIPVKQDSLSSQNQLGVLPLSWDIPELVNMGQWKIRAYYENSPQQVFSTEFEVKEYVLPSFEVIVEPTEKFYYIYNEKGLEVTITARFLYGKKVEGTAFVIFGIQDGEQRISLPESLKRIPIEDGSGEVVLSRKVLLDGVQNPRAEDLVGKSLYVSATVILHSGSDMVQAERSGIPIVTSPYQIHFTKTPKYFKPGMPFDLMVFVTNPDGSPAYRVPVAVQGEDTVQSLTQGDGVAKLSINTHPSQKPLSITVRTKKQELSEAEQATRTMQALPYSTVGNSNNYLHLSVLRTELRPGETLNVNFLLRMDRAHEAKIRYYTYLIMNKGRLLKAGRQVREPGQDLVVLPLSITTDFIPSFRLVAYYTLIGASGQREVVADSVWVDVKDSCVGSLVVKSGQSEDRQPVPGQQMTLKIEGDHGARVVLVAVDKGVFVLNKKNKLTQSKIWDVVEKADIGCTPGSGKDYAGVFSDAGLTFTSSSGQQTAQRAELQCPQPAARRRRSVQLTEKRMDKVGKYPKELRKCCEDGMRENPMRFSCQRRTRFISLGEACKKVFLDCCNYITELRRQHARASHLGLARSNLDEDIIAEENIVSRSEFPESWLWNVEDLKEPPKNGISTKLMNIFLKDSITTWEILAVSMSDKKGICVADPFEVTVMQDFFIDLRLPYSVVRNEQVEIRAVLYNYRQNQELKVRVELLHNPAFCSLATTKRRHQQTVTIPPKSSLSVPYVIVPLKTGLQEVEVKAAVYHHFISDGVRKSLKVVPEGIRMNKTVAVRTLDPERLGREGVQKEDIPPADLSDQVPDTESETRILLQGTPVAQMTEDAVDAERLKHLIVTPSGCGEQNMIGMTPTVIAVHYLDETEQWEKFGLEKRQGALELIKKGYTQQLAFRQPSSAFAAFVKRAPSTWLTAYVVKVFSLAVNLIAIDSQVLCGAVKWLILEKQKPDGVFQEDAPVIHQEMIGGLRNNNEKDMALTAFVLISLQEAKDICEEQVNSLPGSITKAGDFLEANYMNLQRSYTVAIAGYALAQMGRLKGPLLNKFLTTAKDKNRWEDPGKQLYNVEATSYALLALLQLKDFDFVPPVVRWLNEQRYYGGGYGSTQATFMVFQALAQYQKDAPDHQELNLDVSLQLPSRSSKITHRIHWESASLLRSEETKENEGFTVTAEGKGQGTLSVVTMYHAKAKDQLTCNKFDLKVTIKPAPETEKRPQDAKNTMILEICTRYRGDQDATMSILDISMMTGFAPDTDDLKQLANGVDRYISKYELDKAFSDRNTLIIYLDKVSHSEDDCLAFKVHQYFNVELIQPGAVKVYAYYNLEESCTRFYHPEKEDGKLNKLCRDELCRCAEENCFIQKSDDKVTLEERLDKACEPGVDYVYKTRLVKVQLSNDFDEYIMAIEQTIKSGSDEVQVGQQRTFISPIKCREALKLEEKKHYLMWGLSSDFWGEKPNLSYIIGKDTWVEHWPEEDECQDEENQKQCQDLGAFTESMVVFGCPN

binding [1]: binds | binding (C3b [2]): binds | binding [3]: binds | binding (C3b [4]): binds | binding (C3b [5]): binds
B1: MFHR1 (His-tag - FHR1(SCR1-2)-FH(SCR1-4)-FH(SCR19-20)) (protein)
chain: ADLGSHHHHHHHHHHDYDRSFCDFPKINHGILYDEEKYKPFSQVPTGEVFYYSCEYNFVSPSKSFWTRITCTEEGWSPTPKCLRLCFFPFVENGHSESSGQTHLEGDTVQIICNTGYRLQNNENNISCVERGWSTPPKCRSEDCNELPPRRNTEILTGSWSDQTYPEGTQAIYKCRPGYRSLGNVIMVCRKGEWVALNPLRKCQKRPCGHPGDTPFGTFTLTGGNVFEYGVKAVYTCNEGYQLLGEINYRECDTDGWTNDIPICEVVKCLPVTAPENGKIVSSAMEPDREYHFGQAVRFVCNSGYKIEGDEEMHCSDDGFWSKEKPKCVEISCKSPDVINGSPISQKIIYKENERFQYKCNMGYEYSERGDAVCTESGWRPLPSCEDSTGKCGPPPPIDNGDITSFPLSVYAPASSVEYQCQNLYQLEGNKRITCRNGQWSEPPKCLHPCVISREIMENYNIALRWTAKQKLYSRTGESVEFVCKRGYRLSSRSHTLRTTCWDGKLEYPTCAKR

— patent US20190300589A1
